Test results published in PubChem BioAssay AID1259354 (Paczesny and Yang Labs, IUPUI and University of Michigan, 2018).
The campaign covered roughly 78,000 compounds. About 1,800 (2.3%) were called active. The shares of active, inactive and inconclusive entries below differ from those in the screen. Cut-off read from the data, not from the text of the source: active = inhibition above about 30%; inconclusive = mostly about 10% to 28%; inactive = weaker than that.

Sequences of proteins named here, by UniProt entry; tags and fusion partners are left off. A change or cut given only in a name is not applied to a line headed by its entry.
UniProt Q01638: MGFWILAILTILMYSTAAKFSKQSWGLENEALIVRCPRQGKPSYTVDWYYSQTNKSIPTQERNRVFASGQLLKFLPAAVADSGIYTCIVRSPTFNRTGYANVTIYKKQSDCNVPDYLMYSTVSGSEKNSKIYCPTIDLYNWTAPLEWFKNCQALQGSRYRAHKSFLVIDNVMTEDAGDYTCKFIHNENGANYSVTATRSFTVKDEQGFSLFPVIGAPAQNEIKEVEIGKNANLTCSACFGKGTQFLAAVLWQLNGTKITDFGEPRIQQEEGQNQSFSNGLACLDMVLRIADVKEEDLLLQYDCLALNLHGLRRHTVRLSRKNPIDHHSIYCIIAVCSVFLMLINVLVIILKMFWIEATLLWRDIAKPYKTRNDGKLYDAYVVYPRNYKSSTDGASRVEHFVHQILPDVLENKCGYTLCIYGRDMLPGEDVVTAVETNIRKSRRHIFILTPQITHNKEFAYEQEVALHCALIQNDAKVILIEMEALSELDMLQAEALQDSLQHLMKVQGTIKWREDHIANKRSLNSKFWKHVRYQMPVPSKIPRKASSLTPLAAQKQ

Target: Interleukin-1 receptor-like 1 (Homo sapiens) (UniProt Q01638)
Experiment: blocks human ST2 binding to IL-33, primary screen, biochemical, AlphaLISA (AID 1259354)
Conditions: AlphaLISA ST2-Fc/biotin-IL-33 interaction, 1 h; at 17 µM, hits give high values

Row | Compound | inhibition
1 | CC(C)CNC(=O)c1cn(C(C)C)cc(C(=O)N2CCN(c3cccc(C(F)(F)F)c3)CC2)c1=O | inconclusive: 22%
2 | OC[C@@H]1O[C@H](CNC2CCOCC2)[C@H](N2CCCCC2)[C@@H]1O | inconclusive: 13%
3 | CCN(CC)CCCNC(=O)C1(O)c2ccccc2NC(=O)N1c1ccc(Cl)c(Cl)c1 (stereo not given) | inactive
4 | COc1ccc2c(=O)c(Oc3ccccc3)c(C)oc2c1C | inactive
5 | Cc1ccccc1C(=O)Nc1nnc(Cc2ccccc2F)s1 | inactive
6 | CC(C)Oc1ccc(C(=O)Nc2cccc(N3CCCS3(=O)=O)c2)cc1 | inconclusive: 24%
7 | COc1cc(OC)c(NC(=O)CN2CCN(Cc3ccc(F)cc3Cl)S2(=O)=O)cc1Cl | inactive
8 | COc1ccc(N2CC34C=CC(O3)C(C(=O)O)C4C2=O)cc1 (stereo not given) | inconclusive: 15%
9 | O=[N+]([O-])c1ccccc1Sc1c(-c2ccccc2)nc2ncccn12 | inactive
10 | O=C(N[C@H]1C[C@H]2C(=O)NC[C@@H](CCC(=O)N3CCCCC3)N2C1)c1ccc(F)c(Cl)c1 | inconclusive: 16%
11 | c1ccc(CNc2nc(-c3ccccc3)[n+](-c3ccccc3)s2)cc1 | inconclusive: 22%
12 | O=C(Nc1cc(Cl)ccc1O)c1cc2ccccn2n1 | inconclusive: 18%
13 | O=C(NCc1ccncc1)c1c(O)c2ccccc2[nH]c1=O | inconclusive: 25%
14 | COC1(C)C(O)C(=O)C(C)=C(Oc2cc(C)cc(O)c2C)C1O (stereo not given) | inconclusive: 13%
15 | COc1ccccc1-n1c(O)c(C=Nc2ccc(C)cc2)c2ccccc2c1=O | active: 34%
16 | Cc1nn(CC(=O)Nc2ccc(Br)c3cccnc23)c(=O)c2ccccc12 | inconclusive: 17%
17 | O=C1C2CCCN2C(c2ccccc2F)N1c1nccs1 (stereo not given) | inconclusive: 17%
18 | O=C(C(=C(O)c1ccccc1)c1nc2ccccc2[nH]1)c1ccccc1 | inconclusive: 16%
19 | COc1ccccc1N1CCC(N2CC[C@H](CO)[C@H](O)C2)CC1 | inactive
20 | CCN1CCN(C2CCC(C)C2)CC1 (stereo not given) | inconclusive: 11%

Row | Compound | inhibition
21 | O=C(CN1C(=O)c2ccccc2C1=O)Nc1nnc(Cc2ccc(Cl)cc2)s1 | inactive
22 | O=S(=O)(NCc1ccccc1)N1CC2C[C@@H]3CC1C[C@H](C2)C3 | inconclusive: 15%
23 | Cc1ccc(C23C[C@@H]4C[C@@H](CC(O)(C4)C2)C3)cc1[N+](=O)[O-] | active: 44%
24 | O=c1oc2cc(O)ccc2cc1-c1nc(-c2cccs2)cs1 | inconclusive: 16%
25 | COc1ccccc1NS(=O)(=O)c1ccc2c(c1)c(=O)n(C)c(=O)n2C | inactive
26 | CCCCC1C=CCN1C(=O)c1cnc(C(C)C)[nH]c1=O (stereo not given) | inactive
27 | Cc1ccc(-c2nc3ccccc3o2)cc1NC(=O)c1ccccc1 | inactive
28 | Cc1cc(C2(c3ccc(O)c(C)c3)C(=O)N(Cc3ccccc3)c3ccccc32)ccc1O | inconclusive: 13%
29 | COC(=O)C(C)Sc1nc2c([nH]c3ccccc32)c(=O)n1-c1ccc(OC)cc1 (stereo not given) | inconclusive: 14%
30 | COc1cc(/C=C2/SC(=Nc3ccccc3)NC2=O)cc(OC)c1O | inconclusive: 18%
31 | COc1ccc(C2C(C(=O)Nc3ccc(C)cn3)=C(C)NC3=C2C(=O)CC(C)(C)C3)c(OC)c1 (stereo not given) | inconclusive: 22%
32 | CCOC(=O)C(C)Oc1ccc2cc(-c3nc4ccccc4s3)c(=O)oc2c1 (stereo not given) | inconclusive: 10%
33 | Cc1ccc(C=Nc2c(C)n(C)n(-c3ccccc3)c2=O)o1 | inconclusive: 11%
34 | CN(C)c1ccc(-c2ccc3ccccc3n2)cc1 | inconclusive: 13%
35 | Cc1cccnc1N1CCN(Cc2cc(C(C)C)no2)CC1 | inactive
36 | Cc1cccc(C2NC(=O)c3c(sc4c3CCCC4)N2)c1O (stereo not given) | inconclusive: 18%
37 | CC(CCc1ccccc1)Nc1nc(Cl)nc(NCCN2CCOCC2)n1 (stereo not given) | inconclusive: 16%
38 | OC(Cn1ccnc1-c1ccc(-c2ccccc2Cl)o1)c1cccnc1 (stereo not given) | inconclusive: 11%
39 | CCSC1=N/C(=C\c2c(OC)cc(OC)cc2OC)C(=O)S1 | active: 38%
40 | COc1cccc(COC2CN(CC(C)C)C(=O)CN(C(=O)c3cnsn3)C2)c1 (stereo not given) | inconclusive: 13%

Row | Compound | inhibition
41 | COc1cc2c(cc1/C=C1\SC(=O)N(c3ccc(C)cc3)C1=O)OCO2 | inconclusive: 15%
42 | CCCCOCc1n[nH]c(Cc2ccccc2)n1 | inconclusive: 16%
43 | O=C(/C=C/c1ccc2c(c1)OCO2)NCCc1ccccc1 | inconclusive: 15%
44 | CCOC(=O)c1[nH]c(C)c(CC(C)C)c1C | inconclusive: 13%
45 | COc1ccc(C2=NN(C(=O)c3ccc(Br)o3)C(c3ccc(C)cc3)C2)cc1 (stereo not given) | inconclusive: 24%
46 | O=C(C[C@@H]1O[C@H](CNS(=O)(=O)c2ccccc2)[C@@H](O)[C@H]1O)N1CCCC1 | inconclusive: 14%
47 | Cc1ccc(F)c(NC(=O)CCN[C@@H](CO)c2ccccc2)c1 | inactive
48 | CCOc1ccc(-c2ncnn2-c2sc3c(c2C#N)CCCC3)cc1 | inconclusive: 17%
49 | COc1ccc(C2CC(=O)Nc3c2ccc2ccccc32)cc1 (stereo not given) | inactive
50 | CCCCNc1ccc2c3c(cc(=O)n2C)-c2ccccc2C(=O)c13 | inconclusive: 19%
51 | COc1ccc(N2C(=O)C(O)=C(C(=O)OC(C)(C)C)C2c2ccccc2)cc1 (stereo not given) | inconclusive: 13%
52 | O=C(CCS(=O)(=O)c1ccc(Br)s1)Nc1ccc(Cl)cc1 | inactive
53 | CCc1c(C)nc2ncnn2c1Sc1ccccc1NC(=O)Nc1ccccc1 | inconclusive: 14%
54 | O=c1[nH]c2ccccc2c2oc(-c3ccccc3)nc12 | inactive
55 | Nc1nc2ncc([N+](=O)[O-])cn2n1 | inconclusive: 22%
56 | Cc1ccc(-c2csc(NC(=O)c3cccnc3)n2)cc1 | inconclusive: 14%
57 | O=C1CC(N2CCN(Cc3ccc(Cl)cc3)CC2)C(=O)N1c1ccc(F)cc1 (stereo not given) | inactive
58 | COc1cc(/C=C/C(=O)OC2C(CO)OC(OCCc3ccc(O)c(O)c3)C(OC3OCC(O)C(O)C3O)C2OC2OC(C)C(O)C(O)C2O)ccc1O (stereo not given) | inactive
59 | COc1ccc(NC(=O)c2ccc(=O)n(Cc3ccc(F)cc3)c2)c(OC)c1 | inactive
60 | CN(Cc1cc(-c2ccncc2)no1)Cc1ccnc2ccccc12 | inconclusive: 11%

19 structures out of the list, sorted by number of heavy atoms, ascending.
Row | Compound | inhibition
55 | Nc1nc2ncc([N+](=O)[O-])cn2n1 | inconclusive: 22%
20 | CCN1CCN(C2CCC(C)C2)CC1 (stereo not given) | inconclusive: 11%
44 | CCOC(=O)c1[nH]c(C)c(CC(C)C)c1C | inconclusive: 13%
42 | CCCCOCc1n[nH]c(Cc2ccccc2)n1 | inconclusive: 16%
34 | CN(C)c1ccc(-c2ccc3ccccc3n2)cc1 | inconclusive: 13%
12 | O=C(Nc1cc(Cl)ccc1O)c1cc2ccccn2n1 | inconclusive: 18%
17 | O=C1C2CCCN2C(c2ccccc2F)N1c1nccs1 (stereo not given) | inconclusive: 17%
8 | COc1ccc(N2CC34C=CC(O3)C(C(=O)O)C4C2=O)cc1 (stereo not given) | inconclusive: 15%
14 | COC1(C)C(O)C(=O)C(C)=C(Oc2cc(C)cc(O)c2C)C1O (stereo not given) | inconclusive: 13%
60 | CN(Cc1cc(-c2ccncc2)no1)Cc1ccnc2ccccc12 | inconclusive: 11%
18 | O=C(C(=C(O)c1ccccc1)c1nc2ccccc2[nH]1)c1ccccc1 | inconclusive: 16%
16 | Cc1nn(CC(=O)Nc2ccc(Br)c3cccnc23)c(=O)c2ccccc12 | inconclusive: 17%
45 | COc1ccc(C2=NN(C(=O)c3ccc(Br)o3)C(c3ccc(C)cc3)C2)cc1 (stereo not given) | inconclusive: 24%
15 | COc1ccccc1-n1c(O)c(C=Nc2ccc(C)cc2)c2ccccc2c1=O | active: 34%
7 | COc1cc(OC)c(NC(=O)CN2CCN(Cc3ccc(F)cc3Cl)S2(=O)=O)cc1Cl | inactive
28 | Cc1cc(C2(c3ccc(O)c(C)c3)C(=O)N(Cc3ccccc3)c3ccccc32)ccc1O | inconclusive: 13%
31 | COc1ccc(C2C(C(=O)Nc3ccc(C)cn3)=C(C)NC3=C2C(=O)CC(C)(C)C3)c(OC)c1 (stereo not given) | inconclusive: 22%
1 | CC(C)CNC(=O)c1cn(C(C)C)cc(C(=O)N2CCN(c3cccc(C(F)(F)F)c3)CC2)c1=O | inconclusive: 22%
58 | COc1cc(/C=C/C(=O)OC2C(CO)OC(OCCc3ccc(O)c(O)c3)C(OC3OCC(O)C(O)C3O)C2OC2OC(C)C(O)C(O)C2O)ccc1O (stereo not given) | inactive
